Measurements reported in PubChem BioAssay AID1508597 (Cure First, 2020)

- Assay: 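Genes whose silencing sensitises or protects ovarian cancer cells against rucaparib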 (primary screen)
- Cells: human ovarian carcinoma lines grown from tumours: OCI-P5x (papillary serous) and OCI-C5x (clear cell)
- Reagents: siRNA pool against human genes, 1.25 pmol siRNA per well
- Timing: 72 h or 96 h, depending on the cell culture
- Treatment: rucaparib 20 µM (about IC30) or vehicle, present until read-out
- Read-out: 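ATP luminescence measured at 72 or 96 h according to the culture, then normalised and expressed as percent viability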
- Scale: viability, normalised: higher = more viable cells remaining
- Rule for the call: 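a well counts as a hit if its normalised viability is under 80 percent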
- Meaning of the calls: active = viability under 80%; inactive = viability 80% or more
This is an unselected part of about 2,100 reagents tested. 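Calls flag viability under 80% in either arm, not effects specific to rucaparib; the reference for percent is not stated.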 Some reagents were tested in more than one well and are listed for each. The record does not give: the 100% reference.

For PHF1, rucaparib or vehicle Rucaparib, cell line OCI-C5x (clear cell), technical replicate 1, the entry reads viability, normalised (%) = 56.9; active. PHF1, rucaparib or vehicle Rucaparib, cell line OCI-C5x (clear cell), technical replicate 2 showed viability, normalised (%) = 35.2; active. PHF1, rucaparib or vehicle Rucaparib, cell line OCI-C5x (clear cell), technical replicate 3 scored viability, normalised (%) = 39.5; active. PHF1, rucaparib or vehicle Rucaparib, cell line OCI-P5x (serous), technical replicate 1 gave viability, normalised (%) = 44.8; active. With PHF1, rucaparib or vehicle Rucaparib, cell line OCI-P5x (serous), technical replicate 2, the values are viability, normalised (%) = 41.6; active. With PHF1, rucaparib or vehicle Rucaparib, cell line OCI-P5x (serous), technical replicate 3, the entry reads viability, normalised (%) = 42.9; active.

With PHF1, rucaparib or vehicle Vehicle, cell line OCI-C5x (clear cell), technical replicate 1, the values are viability, normalised (%) = 39.6; active. PHF1, rucaparib or vehicle Vehicle, cell line OCI-C5x (clear cell), technical replicate 2 showed viability, normalised (%) = 36.3; active. PHF1, rucaparib or vehicle Vehicle, cell line OCI-C5x (clear cell), technical replicate 3 showed viability, normalised (%) = 43.7; active. PHF1, rucaparib or vehicle Vehicle, cell line OCI-P5x (serous), technical replicate 1 showed viability, normalised (%) = 44.7; active. With PHF1, rucaparib or vehicle Vehicle, cell line OCI-P5x (serous), technical replicate 2, the entry reads viability, normalised (%) = 44.9; active. PHF1, rucaparib or vehicle Vehicle, cell line OCI-P5x (serous), technical replicate 3 gave viability, normalised (%) = 75.7; active.

PRKCQ, rucaparib or vehicle Rucaparib, cell line OCI-C5x (clear cell), technical replicate 1 showed viability, normalised (%) = 97.2; inactive. PRKCQ, rucaparib or vehicle Rucaparib, cell line OCI-C5x (clear cell), technical replicate 2 gave viability, normalised (%) = 91.1; inactive. PRKCQ, rucaparib or vehicle Rucaparib, cell line OCI-C5x (clear cell), technical replicate 3 showed viability, normalised (%) = 82.1; inactive. With PRKCQ, rucaparib or vehicle Rucaparib, cell line OCI-P5x (serous), technical replicate 1, the entry reads viability, normalised (%) = 85.8; inactive. With PRKCQ, rucaparib or vehicle Rucaparib, cell line OCI-P5x (serous), technical replicate 2, the values are viability, normalised (%) = 93.2; inactive. PRKCQ, rucaparib or vehicle Rucaparib, cell line OCI-P5x (serous), technical replicate 3 gave viability, normalised (%) = 81.4; inactive.

For PRKCQ, rucaparib or vehicle Vehicle, cell line OCI-C5x (clear cell), technical replicate 1, the values are viability, normalised (%) = 72.1; active. PRKCQ, rucaparib or vehicle Vehicle, cell line OCI-C5x (clear cell), technical replicate 2 scored viability, normalised (%) = 96.6; inactive. PRKCQ, rucaparib or vehicle Vehicle, cell line OCI-C5x (clear cell), technical replicate 3 gave viability, normalised (%) = 67.4; active. PRKCQ, rucaparib or vehicle Vehicle, cell line OCI-P5x (serous), technical replicate 1 scored viability, normalised (%) = 102; inactive. With PRKCQ, rucaparib or vehicle Vehicle, cell line OCI-P5x (serous), technical replicate 2, the entry reads viability, normalised (%) = 96; inactive. PRKCQ, rucaparib or vehicle Vehicle, cell line OCI-P5x (serous), technical replicate 3 scored viability, normalised (%) = 127; inactive.

For SCYL1, rucaparib or vehicle Rucaparib, cell line OCI-C5x (clear cell), technical replicate 1 the deposit lists viability, normalised (%) = 26.6; active. For SCYL1, rucaparib or vehicle Rucaparib, cell line OCI-C5x (clear cell), technical replicate 1, the values are viability, normalised (%) = 53.8; active. With SCYL1, rucaparib or vehicle Rucaparib, cell line OCI-C5x (clear cell), technical replicate 2 the deposit lists viability, normalised (%) = 30.7; active. SCYL1, rucaparib or vehicle Rucaparib, cell line OCI-C5x (clear cell), technical replicate 2 gave viability, normalised (%) = 61.8; active. SCYL1, rucaparib or vehicle Rucaparib, cell line OCI-C5x (clear cell), technical replicate 3 scored viability, normalised (%) = 51.8; active. For SCYL1, rucaparib or vehicle Rucaparib, cell line OCI-C5x (clear cell), technical replicate 3 the deposit lists viability, normalised (%) = 45.3; active.

SCYL1, rucaparib or vehicle Rucaparib, cell line OCI-P5x (serous), technical replicate 1 gave viability, normalised (%) = 53.7; active. SCYL1, rucaparib or vehicle Rucaparib, cell line OCI-P5x (serous), technical replicate 1 scored viability, normalised (%) = 64; active. For SCYL1, rucaparib or vehicle Rucaparib, cell line OCI-P5x (serous), technical replicate 2, the values are viability, normalised (%) = 45.2; active. With SCYL1, rucaparib or vehicle Rucaparib, cell line OCI-P5x (serous), technical replicate 2, the entry reads viability, normalised (%) = 83.8; inactive. For SCYL1, rucaparib or vehicle Rucaparib, cell line OCI-P5x (serous), technical replicate 3, the entry reads viability, normalised (%) = 78; active. For SCYL1, rucaparib or vehicle Rucaparib, cell line OCI-P5x (serous), technical replicate 3, the values are viability, normalised (%) = 61.7; active.

SCYL1, rucaparib or vehicle Vehicle, cell line OCI-C5x (clear cell), technical replicate 1 scored viability, normalised (%) = 50.5; active. With SCYL1, rucaparib or vehicle Vehicle, cell line OCI-C5x (clear cell), technical replicate 1 the deposit lists viability, normalised (%) = 57.7; active. With SCYL1, rucaparib or vehicle Vehicle, cell line OCI-C5x (clear cell), technical replicate 2, the values are viability, normalised (%) = 54.3; active. SCYL1, rucaparib or vehicle Vehicle, cell line OCI-C5x (clear cell), technical replicate 2 scored viability, normalised (%) = 31.9; active. SCYL1, rucaparib or vehicle Vehicle, cell line OCI-C5x (clear cell), technical replicate 3 scored viability, normalised (%) = 70.6; active. SCYL1, rucaparib or vehicle Vehicle, cell line OCI-C5x (clear cell), technical replicate 3 gave viability, normalised (%) = 65.9; active.

With SCYL1, rucaparib or vehicle Vehicle, cell line OCI-P5x (serous), technical replicate 1, the entry reads viability, normalised (%) = 73.5; active. SCYL1, rucaparib or vehicle Vehicle, cell line OCI-P5x (serous), technical replicate 1 showed viability, normalised (%) = 49.4; active. For SCYL1, rucaparib or vehicle Vehicle, cell line OCI-P5x (serous), technical replicate 2, the values are viability, normalised (%) = 59; active. With SCYL1, rucaparib or vehicle Vehicle, cell line OCI-P5x (serous), technical replicate 2 the deposit lists viability, normalised (%) = 73.9; active. SCYL1, rucaparib or vehicle Vehicle, cell line OCI-P5x (serous), technical replicate 3 showed viability, normalised (%) = 62.7; active. With SCYL1, rucaparib or vehicle Vehicle, cell line OCI-P5x (serous), technical replicate 3, the values are viability, normalised (%) = 74.3; active.

Individual results from the entries so far:
PHF1, rucaparib or vehicle Vehicle, cell line OCI-C5x (clear cell), technical replicate 3, viability, normalised (%) → 43.7
Entry for PHF1, rucaparib or vehicle Vehicle, cell line OCI-P5x (serous), technical replicate 2 under “outcome”: active
PHF1, rucaparib or vehicle Vehicle, cell line OCI-P5x (serous), technical replicate 3, outcome: active
PRKCQ, rucaparib or vehicle Rucaparib, cell line OCI-C5x (clear cell), technical replicate 3, viability, normalised (%) = 82.1
Value for PRKCQ, rucaparib or vehicle Rucaparib, cell line OCI-C5x (clear cell), technical replicate 1 in “viability, normalised (%)”: 97.2
